In this experiment the target is recombinant human IL-23R (custom-made by Trenzyme) (human) (UniProt Q5VWK5). Nature of the experiment: SPR.

Chains of the proteins cited; added tags and fusions are not shown. Residues count along the entry.
UniProt Q5VWK5, residues 24-355: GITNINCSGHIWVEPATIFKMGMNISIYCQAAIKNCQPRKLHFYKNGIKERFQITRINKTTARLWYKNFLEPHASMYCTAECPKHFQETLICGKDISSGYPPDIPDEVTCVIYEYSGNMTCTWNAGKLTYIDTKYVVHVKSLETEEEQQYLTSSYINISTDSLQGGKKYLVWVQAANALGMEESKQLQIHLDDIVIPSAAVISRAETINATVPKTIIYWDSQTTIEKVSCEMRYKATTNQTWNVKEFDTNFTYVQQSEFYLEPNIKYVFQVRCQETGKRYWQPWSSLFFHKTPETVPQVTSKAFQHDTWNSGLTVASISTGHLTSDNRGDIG

We go through 2 molecules from patent US20220411536A1.

These are yes or no findings as the source states them, for the method shown. Some entries that bind do so weakly or less than the wild type.

B1: PRO1545 (multispecific antibody)
chain 1: DIQMTQSPSSLSASVGDRVTITCQASQSINDYLAWYQQKPGKAPKLLIYKASTLASGVPSRFSGSGSGTDFTLTISSLQPEDFATYYCQAAYIITDIDNVFGTGTKVTVLGGGGGSGGGGSGGGGSGGGGSQVQLQESGPGLVKPSETLSLTCKVSGFSFSSGYDMCWIRQPPGKGLEWIGCVVAGSVDITYYASWAKGRVTISVDSSKNQFSLKLSSVTAADTAVYYCARKDAYSDAFNLWGQGTLVTVSSGGGGSGGGGSDVVMTQSPSSLSASVGDRVTITCQASQIISSRSAWYQQKPGQPPKLLIYQASKLASGVPSRFSGSGSGTDFTLTISSLQPEDFATYYCQCTYIDSNFGAFGCGTKLTVLGGGSGGSDIQMTQSPSSLSASVGDRVTITCQSSQSVFSNNYLAWFQQKPGQSPKRLIYSASTLASGVPSRFSGSGSGTDFTLTISSLQPEDFATYYCLGSYACSSADCYVFGTGTKVTVLG
chain 2: DIQMTQSPSSLSASVGDRVTITCQASENIYSFLAWYQQKPGKAPKLLIYSASKLAAGVPSRFSGSGSGTDFTLTISSLQPEDFATYYCQQTNRYSNPDIYNVFGTGTKVTVLGGGGGSGGGGSGGGGSGGGGSEVQLVESGGGLVQPGGSLRLSCAASGIDFNSNYYMCWVRQAPGKGLEWIGCIYVGSHVNTYYANWAKGRFTISRDNSKNTVYLQMNSLRAEDTAVYYCATSGSSVLYFKFWGQGTLVTVSSGGGGSGGGGSEVQLVESGGGLVQPGGSLRLSCAASGFSLSSYDMSWVRQAPGKGLAWIGASYASGPTYYASWAKGRFTISRDNSKNTVYLQMNSLRAEDTATYFCARGGWTGTSHSNIWGQGTLVTVSSGGGSGGGSEVQLVESGGGLVQPGGSLRLSCAASGFSFSSSYWICWVRQAPGKCLEWVGCVFTGDGTTYYASWAKGRFTISRDNSKNTVYLQMNSLRAEDTATYFCARPVSVYYYGMDLWGQGTLVTVSS
For the molecule B1, the binding result was “binds”.

B2: PRO1546 (multispecific antibody)
chain 1: DIQMTQSPSSLSASVGDRVTITCQASENIYSFLAWYQQKPGKAPKLLIYSASKLAAGVPSRFSGSGSGTDFTLTISSLQPEDFATYYCQQTNRYSNPDIYNVFGTGTKVTVLGGGGGSGGGGSGGGGSGGGGSEVQLVESGGGLVQPGGSLRLSCAASGIDFNSNYYMCWVRQAPGKGLEWIGCIYVGSHVNTYYANWAKGRFTISRDNSKNTVYLQMNSLRAEDTAVYYCATSGSSVLYFKFWGQGTLVTVSSGGGGSGGGGSDVVMTQSPSSLSASVGDRVTITCQASQIISSRSAWYQQKPGQPPKLLIYQASKLASGVPSRFSGSGSGTDFTLTISSLQPEDFATYYCQCTYIDSNFGAFGCGTKLTVLGGGSGGSDIQMTQSPSSLSASVGDRVTITCQSSQSVFSNNYLAWFQQKPGQSPKRLIYSASTLASGVPSRFSGSGSGTDFTLTISSLQPEDFATYYCLGSYACSSADCYVFGTGTKVTVLG
chain 2: DIQMTQSPSSLSASVGDRVTITCQASQSINDYLAWYQQKPGKAPKLLIYKASTLASGVPSRFSGSGSGTDFTLTISSLQPEDFATYYCQAAYIITDIDNVFGTGTKVTVLGGGGGSGGGGSGGGGSGGGGSQVQLQESGPGLVKPSETLSLTCKVSGFSFSSGYDMCWIRQPPGKGLEWIGCVVAGSVDITYYASWAKGRVTISVDSSKNQFSLKLSSVTAADTAVYYCARKDAYSDAFNLWGQGTLVTVSSGGGGSGGGGSEVQLVESGGGLVQPGGSLRLSCAASGFSLSSYDMSWVRQAPGKGLAWIGASYASGPTYYASWAKGRFTISRDNSKNTVYLQMNSLRAEDTATYFCARGGWTGTSHSNIWGQGTLVTVSSGGGSGGGSEVQLVESGGGLVQPGGSLRLSCAASGFSFSSSYWICWVRQAPGKCLEWVGCVFTGDGTTYYASWAKGRFTISRDNSKNTVYLQMNSLRAEDTATYFCARPVSVYYYGMDLWGQGTLVTVSS
With B2, the binding result was “binds”.
